# Article PMC9881141
# By UniProt entry, the sequences of proteins in these tests, tags left out.
# UniProt Q9NVM9: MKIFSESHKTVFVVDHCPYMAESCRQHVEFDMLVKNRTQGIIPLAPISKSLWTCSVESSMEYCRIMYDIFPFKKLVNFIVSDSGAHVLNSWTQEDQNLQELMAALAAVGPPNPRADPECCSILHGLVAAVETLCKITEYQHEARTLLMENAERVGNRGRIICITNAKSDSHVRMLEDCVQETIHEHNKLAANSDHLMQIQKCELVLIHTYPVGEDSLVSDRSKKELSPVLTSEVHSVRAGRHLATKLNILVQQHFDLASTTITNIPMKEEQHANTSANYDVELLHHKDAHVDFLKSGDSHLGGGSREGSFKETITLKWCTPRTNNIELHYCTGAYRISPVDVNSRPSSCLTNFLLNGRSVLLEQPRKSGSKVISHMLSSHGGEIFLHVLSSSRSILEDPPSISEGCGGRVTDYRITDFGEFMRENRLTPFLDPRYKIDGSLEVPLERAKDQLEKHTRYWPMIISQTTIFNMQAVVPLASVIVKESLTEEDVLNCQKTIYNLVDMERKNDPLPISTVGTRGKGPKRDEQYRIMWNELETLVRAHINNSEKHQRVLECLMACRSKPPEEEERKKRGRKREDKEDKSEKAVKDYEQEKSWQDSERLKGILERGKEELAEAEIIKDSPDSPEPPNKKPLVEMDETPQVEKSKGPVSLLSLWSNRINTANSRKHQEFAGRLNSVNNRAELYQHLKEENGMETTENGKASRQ
# UniProt Q9NVR2: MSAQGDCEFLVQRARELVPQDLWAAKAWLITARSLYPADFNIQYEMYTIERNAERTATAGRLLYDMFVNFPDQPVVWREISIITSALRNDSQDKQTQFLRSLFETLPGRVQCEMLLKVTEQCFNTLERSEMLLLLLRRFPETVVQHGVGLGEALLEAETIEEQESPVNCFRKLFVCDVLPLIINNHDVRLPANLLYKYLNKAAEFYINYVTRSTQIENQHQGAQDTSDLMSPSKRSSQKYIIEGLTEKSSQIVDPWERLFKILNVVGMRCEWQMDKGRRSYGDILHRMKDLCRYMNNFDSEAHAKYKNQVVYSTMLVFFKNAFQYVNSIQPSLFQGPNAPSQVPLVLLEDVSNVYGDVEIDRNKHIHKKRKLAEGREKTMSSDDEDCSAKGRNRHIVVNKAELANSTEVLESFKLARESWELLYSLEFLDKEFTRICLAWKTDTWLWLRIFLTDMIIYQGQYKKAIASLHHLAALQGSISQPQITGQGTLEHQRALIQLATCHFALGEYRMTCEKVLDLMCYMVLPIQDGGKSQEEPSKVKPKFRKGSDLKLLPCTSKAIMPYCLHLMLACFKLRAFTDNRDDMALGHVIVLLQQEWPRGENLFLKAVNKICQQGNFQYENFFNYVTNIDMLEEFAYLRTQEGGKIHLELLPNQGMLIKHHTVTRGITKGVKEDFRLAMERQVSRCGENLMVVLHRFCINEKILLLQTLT
# UniProt Q96SY0: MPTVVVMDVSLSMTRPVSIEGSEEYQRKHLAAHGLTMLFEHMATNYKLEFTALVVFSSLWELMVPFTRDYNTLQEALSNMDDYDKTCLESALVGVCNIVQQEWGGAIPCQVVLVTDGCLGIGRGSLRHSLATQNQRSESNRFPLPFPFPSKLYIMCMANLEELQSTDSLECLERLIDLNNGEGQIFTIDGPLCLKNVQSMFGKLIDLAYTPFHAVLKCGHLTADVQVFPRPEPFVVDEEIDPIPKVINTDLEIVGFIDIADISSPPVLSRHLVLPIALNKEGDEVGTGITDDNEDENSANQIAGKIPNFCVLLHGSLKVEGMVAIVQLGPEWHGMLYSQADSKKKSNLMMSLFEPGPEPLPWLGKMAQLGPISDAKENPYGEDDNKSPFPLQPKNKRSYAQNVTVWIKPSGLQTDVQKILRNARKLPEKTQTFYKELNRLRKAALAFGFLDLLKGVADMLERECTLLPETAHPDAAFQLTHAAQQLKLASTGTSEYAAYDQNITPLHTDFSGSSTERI
# No constants are given. Whether binding was seen depends on the method and setting. In cells and extracts the contact can be indirect. Some binding calls cover weakened binding; strength is not graded here.
# Biological target: INTS13 (human (endogenous in lymphoblastoid cells)) (UniProt Q9NVM9)
# Test: co-IP; anti-INTS13 antibodies pre-coupled to protein A-Sepharose CL-4B beads; whole-cell extracts (HNTG buffer) of control C702 and patients' AC438/AC439 lymphoblastoid cells, 2 h at 4°C; washes with IP150 buffer (20 mM Tris-HCl pH 7.4, 150 mM NaCl, 5 mM MgCl2, 0.1% Nonidet P-40); western blot
substance,measurement,value
INTS10 (from UniProt Q9NVR2 1-710),binding,binds
INTS14 (from UniProt Q96SY0 1-518),binding,binds
